# The whole screen tested about 320,000 compounds, of which about 22,000 (6.9%) were called active. Inconclusive results, whose numbers are uncertain, are shown with a selection of clear calls. Calls come from the whole dose curve; as a rule, active = well fitted inhibition curve with a large enough effect; inconclusive = small, poorly fitted or top-dose-only effect, or another doubt; inactive = no such curve, though single readings can be large or run the other way. Potencies of inconclusive entries are doubtful fits and often do not repeat.
# Test: Primary qHTS for delayed death inhibitors of the malarial parasite plastid, 96 hour incubation
# Conditions: P. falciparum luciferase reporter growth; series mostly up to 28.7 µM; activity change, negative = inhibition: at the top concentration
# Summary of the method: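 Compounds incubated with erythrocytes infected by luciferase-expressing P. falciparum (2% hematocrit, 0.05% parasitemia final) for 96 hours, 37 C in 5% CO2. Growth inhibition scored as decreased luciferase luminescence.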
# % is set by controls: 0 for no effect and ±100 for the full control effect; potency is the fitted concentration of half-maximal effect.
SMILES,Potency,"activity change, negative = inhibition"
COc1cc2[nH]c(-c3cccc(F)c3)cc(=O)c2cc1OC,"inconclusive: 10.4 µM [inhibitor, partial curve, poor fit]",–
Cc1ccc(NC(=S)N=Nc2c(O)n(C)c3ccc(S(=O)(=O)N4CCOCC4)cc23)cc1,"inconclusive: 20.8 µM [inhibitor, single point]",–
Cc1ccc(O)c(C(=O)CC(=O)c2ccc(C(C)(C)C)cc2)c1,"inconclusive: 14.7 µM [inhibitor, single point]",–
O=C(/C=C/c1ccco1)NC(=S)Nc1ccccc1Br,"inconclusive: 18.5 µM [inhibitor, single point]",–
Cc1c(C)c2cc(Cl)c(OCC(=O)N3CCN(c4ccc(F)cc4)CC3)cc2oc1=O,–,inactive: -1.38%
COc1ccc(/C=N/NC(=O)Nc2cccc3nsnc23)c(OC)c1,"inconclusive: 4.15 µM [inhibitor, partial curve]",–
COc1ccc(/C=N/NC(=O)c2ccc(COc3cccc4cccnc34)cc2)cc1O,"inconclusive: 10.4 µM [inhibitor, single point]",–
O=C(NCCC1CCCCN1S(=O)(=O)c1ccc(F)cc1)C(=O)NC1CCCC1 (stereo not given),"inconclusive: 11.7 µM [inhibitor, partial curve]",–
O=C(c1cnc(Cl)c(Cl)c1)N1CCN(S(=O)(=O)c2ccc3ccccc3c2)CC1,–,inactive: -2.32%
CC1(OC(=O)CCc2ccccc2)C(=O)C=C2C=C(c3ccc(C#N)cc3)N(Cc3ccco3)C=C2C1=O (stereo not given),"inconclusive: 13.1 µM [inhibitor, single point]",–
Cc1cc(C)c2c(N)c(C(=O)c3cccc(Cl)c3)sc2n1,"inconclusive: 18.5 µM [inhibitor, single point]",–
Cc1noc(C(=O)Nc2ccc(F)c(Cl)c2)c1Cl,–,inactive: 233%
COC(=O)c1ccc(CN2CCN(CCCc3ccccc3)C(CCO)C2)cc1 (stereo not given),"inconclusive: 16.5 µM [inhibitor, single point]",–
CC1CCN(S(=O)(=O)c2ccc3c(c2)CC(C)N3C(=O)C2CCC2)CC1 (stereo not given),–,inactive: -16.7%
Cc1c(N=Cc2c(O)n(CCc3ccc(F)cc3)c(=O)[nH]c2=O)c(=O)n(-c2ccccc2)n1C,active: 10.4 µM,–
NS(=O)(=O)c1ccc(N=Nc2c[nH]c(=O)c(O)c2)cc1,"inconclusive: 13.1 µM [inhibitor, partial curve]",–
Cc1nnc(SCC(=O)c2c[nH]c3ccccc23)n1C1CC1,"inconclusive: 18.5 µM [inhibitor, single point]",–
CC(c1ccccc1)C1C(C#N)=C(N)OC2=C1C(=O)CC(C)(C)C2 (stereo not given),"inconclusive: 10.4 µM [inhibitor, single point]",–
O=C(CCc1nnc2ccc(N3CCOCC3)nn12)Nc1ccc(F)cc1F,"inconclusive: 18.5 µM [inhibitor, single point]",–
O=C(COc1ccc(Cl)cc1)NCc1nnc(SCC(=O)c2ccccc2)o1,active: 4.15 µM,–
NC(=O)C1CCN(C(=O)CSc2nc3c(c(-c4ccccc4)n2)CCCC3)CC1,"inconclusive: 0.415 µM [inhibitor, partial curve, poor fit]",–
Nc1nnc(SCC(=O)Nc2ccc(Cl)c(C(=O)O)c2)s1,"inconclusive: 18.5 µM [inhibitor, single point]",–
COc1ccccc1/C=C/C=N/N1CCN(Cc2ccc(Cl)cc2)CC1,"inconclusive: 14.7 µM [inhibitor, single point]",–
O=C(CNS(=O)(=O)c1ccccc1)N/N=C/c1ccncc1,"inconclusive: 9.28 µM [inhibitor, partial curve]",–

SMILES,Potency,"activity change, negative = inhibition"
CCC(=O)Nc1ccc(S(=O)(=O)Nc2c(NC)c3ccccc3oc2=O)cc1,"inconclusive: 5.22 µM [inhibitor, partial curve, poor fit]",–
CC1CC(O)(CC(O)(c2ccccc2)c2ccccc2)C(C)CN1C (stereo not given),"inconclusive: 10.4 µM [inhibitor, single point]",–
O=C(COc1ccc(Br)cc1)Nc1cc(S(=O)(=O)N2CCCCC2)ccc1N1CCCCC1,active: 1.85 µM,–
Cc1ccc(C2=NS(=O)(=O)N(C)C(C(=O)NC3CCCCC3)=C2)cc1,–,inactive: 1.14%
CN(CC(=O)Nc1c(Cl)cccc1Cl)C(=O)c1ccccc1SCC(=O)N1CCCC1,"inconclusive: 10.4 µM [inhibitor, single point]",–
O=C(c1ccccc1)c1ccc(O)cc1O,–,inactive: 42%
COc1ccccc1C(=O)NCCC(=O)N1CCN(c2ccccc2Cl)CC1,active: 11.7 µM,–
COc1ccc(C2=NN(C(=O)c3ccccc3)C(c3ccc(OC)c(OC)c3)C2)c(OC(C)=O)c1 (stereo not given),active: 10.4 µM,–
CCN1C(=O)[C@H]2[C@@H](c3ccc(C)cc3)N3C(=O)N(c4ccc(OC)cc4)C(=O)[C@@]3(CC)[C@H]2C1=O,–,inactive: 63.4%
COC(=O)C1C(c2ccc(Br)cc2)Nc2nnc(C(F)(F)F)n2C1(C)O (stereo not given),"inconclusive: 18.5 µM [inhibitor, single point]",–
O=C1CCC(C(=O)N2CCC(CCO)CC2)CN1Cc1ccc(Cl)cc1 (stereo not given),"inconclusive: 18.5 µM [inhibitor, single point]",–
COc1ccc(CCNS(=O)(=O)c2ccc(Br)cc2)cc1OC,"inconclusive: 7.38 µM [inhibitor, single point]",–
CCOCC(=O)Nc1cc([N+](=O)[O-])ccc1C,"inconclusive: 11.7 µM [inhibitor, single point]",–
COc1ccc(Cn2c(CCC(=O)Nc3ccc(C)cc3)nc3cccnc32)cc1,active: 10.4 µM,–
Cc1ccc(N=CNc2ccc(C)cc2C)c(C)c1,–,inactive: 2.24%
O=C(NCCCN1CCCC1=O)c1ccc(NS(=O)(=O)c2ccccc2)cc1,"inconclusive: 11.7 µM [inhibitor, partial curve, poor fit]",–
c1csc(CN2CCNCC2)c1,active: 10.4 µM,–
CCn1c(SCC(=O)Nc2cc(OC)ccc2OC)nc2c(c1=O)SCC2,–,inactive: -18.9%
COc1cc(NC(=O)c2cccs2)c(C(=O)OCC(=O)c2cc(C)n(-c3ccccc3)c2C)cc1OC,"inconclusive: 14.7 µM [inhibitor, partial curve, poor fit]",–
Cc1occc1C(=O)N/N=C/c1cccc2ccccc12,"inconclusive: 0.0828 µM [inhibitor, full curve, poor fit]",–
COc1ccccc1/C=C/CN1CCC(n2nccc2NC(=O)C2CC2)CC1,"inconclusive: 18.5 µM [inhibitor, single point]",–
O=C(COc1ccccc1)N=C1SC2CS(=O)(=O)CC2N1c1ccccc1F (stereo not given),–,inactive: 35.9%
CC(O)CNCCCOc1cccc(Oc2ccccc2)c1 (stereo not given),–,inactive: 9.98%
CCOc1ccc(/C=C2/C(=O)N(c3ccc(OC)cc3)C(=S)N2CC(=O)OC)cc1OCC,"inconclusive: 18.5 µM [inhibitor, single point]",–

# Whole records from above. Values in the order: Potency	activity change, negative = inhibition
# `O=C(COc1ccccc1)N=C1SC2CS(=O)(=O)CC2N1c1ccccc1F` (stereo not given) reads –	inactive: 35.9%
# `CCN1C(=O)[C@H]2[C@@H](c3ccc(C)cc3)N3C(=O)N(c4ccc(OC)cc4)C(=O)[C@@]3(CC)[C@H]2C1=O` reads –	inactive: 63.4%
# `CC(O)CNCCCOc1cccc(Oc2ccccc2)c1` (stereo not given) reads –	inactive: 9.98%

# Remaining list, next part

SMILES,Potency,"activity change, negative = inhibition"
Cc1c(C(=O)OC(C)C)nnn1-c1nonc1N,–,inactive: 15.7%
O=C(COc1coc(CN2CCN(c3ccccc3)CC2)cc1=O)N1CCc2ccccc21,"inconclusive: 0.928 µM [inhibitor, full curve]",–
CC1CCN(CCOCCOc2ccccc2Br)CC1,–,inactive: 46.7%
CC(=O)N(C(C)=O)c1ncnc2c1c(-c1ccc(Cl)cc1)nn2C(C)(C)C,"inconclusive: 18.5 µM [inhibitor, single point]",–
COc1cc(/C=N\NC(=O)c2ccc(C)nc2)ccc1OC(=O)c1ccc2c(c1)OCO2,"inconclusive: 0.0329 µM [inhibitor, full curve, poor fit]",–
CCN1CCCc2cc(CN(CCN3CCOCC3)C(=S)Nc3ccccc3OC)ccc21,"inconclusive: 5.22 µM [inhibitor, partial curve, poor fit]",–
Cc1cc(C)n(NC(=S)NC2CCCC2)c(=O)c1C#N,–,inactive: 0%
CCOc1ccccc1OCC(=O)Nc1ccccc1C(=O)NC1CC1,"inconclusive: 0.0465 µM [inhibitor, full curve, poor fit]",–
c1ccc(CSc2ncnc3ccccc23)cc1,–,inactive: 82.4% [at 5.75 µM]
C=CCn1c(SCC2CCCCO2)nc2sc(CC)cc2c1=O (stereo not given),"inconclusive: 11.7 µM [inhibitor, partial curve]",–
COc1cccc(-c2nnc(SCC(=O)Nc3cc(C)on3)n2C)c1,"inconclusive: 2.08 µM [inhibitor, partial curve, poor fit]",–
O=C(NNC(=O)c1ccccc1[N+](=O)[O-])Nc1ccccc1C(F)(F)F,active: 11.7 µM,–
O=C1CCC(=O)N1CC(=O)N(c1ccccc1)c1ccccc1,"inconclusive: 11.7 µM [inhibitor, partial curve, poor fit]",–
CCCCN(C(=O)CSc1nnc2ccccn12)c1c(N)n(Cc2ccccc2)c(=O)[nH]c1=O,"inconclusive: 0.828 µM [inhibitor, full curve]",–
CCOC(=O)c1ccc(NC(=O)C(=O)NCc2ccc(/C=C(/C#N)C(=O)NCCOC)o2)cc1,–,inactive: -9.82%
Cc1cc(NN)nc(NS(=O)(=O)c2ccc(Cl)cc2)n1,"inconclusive: 18.5 µM [inhibitor, single point]",–
CC[C@H](C)[C@H](NC(N)=O)C(=O)Nc1ccccc1F,–,inactive: 2%
Cc1ccccc1N1CCN(S(=O)(=O)C[C@]23CCC(CC2NC(=O)[C@@H](N)CCS(C)(=O)=O)C3(C)C)CC1 (stereo not given in full),"inconclusive: 18.5 µM [inhibitor, single point]",–
O=C(NCCCN1CCCC1)C1CCN(C(=O)c2cc3sccc3n2Cc2ccc(F)cc2)CC1,active: 10.4 µM,–
COc1ccc(/C=C/C(=O)O)cc1S(=O)(=O)N1CCC(C)CC1,–,inactive: 19.2%
COCCNC(=O)c1ccc(CN2CCOCC2)cc1,–,inactive: -21.5%
CC(NCC(O)COC1CCC(C(C)(C)C)CC1)c1ccccc1 (stereo not given),"inconclusive: 10.4 µM [inhibitor, single point]",–

# — PubChem BioAssay AID504834 (National Center for Advancing Translational Sciences (NCATS), 2011)
